Primary screen of a compound library

Protein sequences, listed by entry. Tags and fused reporters are not part of them.
UniProt E9BF75, entry or part of it: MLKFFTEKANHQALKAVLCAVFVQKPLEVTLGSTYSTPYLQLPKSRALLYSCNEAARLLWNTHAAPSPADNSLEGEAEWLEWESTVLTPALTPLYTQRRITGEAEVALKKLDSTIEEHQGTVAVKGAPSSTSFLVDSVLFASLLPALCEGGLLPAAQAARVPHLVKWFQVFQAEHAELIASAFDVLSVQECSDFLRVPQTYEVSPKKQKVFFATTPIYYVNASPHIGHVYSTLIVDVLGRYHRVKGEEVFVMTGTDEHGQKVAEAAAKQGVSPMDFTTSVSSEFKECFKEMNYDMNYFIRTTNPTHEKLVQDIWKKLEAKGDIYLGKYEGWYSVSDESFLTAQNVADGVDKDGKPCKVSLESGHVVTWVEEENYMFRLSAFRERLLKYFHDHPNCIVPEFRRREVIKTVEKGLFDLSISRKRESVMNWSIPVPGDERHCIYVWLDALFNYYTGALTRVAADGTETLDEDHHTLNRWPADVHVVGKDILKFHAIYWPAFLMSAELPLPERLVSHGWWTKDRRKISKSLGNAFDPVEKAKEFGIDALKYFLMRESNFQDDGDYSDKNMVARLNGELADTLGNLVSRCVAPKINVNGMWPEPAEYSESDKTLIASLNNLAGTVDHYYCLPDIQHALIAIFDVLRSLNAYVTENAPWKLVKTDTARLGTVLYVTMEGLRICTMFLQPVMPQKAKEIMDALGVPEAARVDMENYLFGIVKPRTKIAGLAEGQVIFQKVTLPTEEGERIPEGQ

Measurements from “University of Dundee, Small-Polar-MMV Screening Library” (2021), ChEMBL document CHEMBL3988442.

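Primary screen of methionyl-tRNA synthetase; the read-out is not stated. Target: Methionyl-tRNA synthetase (putative), Leishmania donovani (UniProt E9BF75). The test concentration is not given. Values are per cent inhibition. Of about 68,000 compounds tested this way, about 24 (0.035%) reached 50% or more in at least one test.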

All values are in %. The controls that fix the scale are not given in the record; negative values are as filed. The compounds are a random part of those screened.

compound,inhibition
CC(C)Oc1cccc(F)c1C(C(=O)O)N(C)Cc1ccon1 (centres unmarked),16.19%
CC(C)N(C)CCCNC(=O)c1cnn(C(C)C)c1C(F)(F)F,14.78%
CN(C)c1nc(N2CCCC2)nc2c1CCN(C(=O)c1ccco1)CC2,14.79%
CCN1CCN(C(=O)c2cc(NC(=O)c3ccccc3)n(C)n2)CC1,13.51%
Cc1nn(C)c(N2CCOCC2)c1CNCc1ccc(C(C)O)cc1 (centres unmarked),6.63%
O=C(CCCc1ncc(-c2ccccc2)o1)N1CCN(CCO)CC1,2.347%
CNC(=O)C1CN(Cc2ccc(C#N)cc2F)c2ccccc2O1 (centres unmarked),10.14%
Cc1c(S(=O)(=O)N2CCCCC2c2nnc(-c3cccs3)o2)cnn1C (centres unmarked),14.95%
CN(CC1(CO)CCC1)c1nc2c(c(=O)[nH]1)Cc1ccccc1OC2,20.36%
Cc1ccc(N2C[C@@H]3OCCN(CC4CC4)[C@@H]3C2)nn1,10.93%
CCc1cc(CN(C)C(=O)c2cnon2)on1,1.083%
CCNC(=O)c1cc(OC)c(OC)cc1N(C)S(C)(=O)=O,8.04%
CSCC(=O)Nc1cccc(Oc2ccccn2)c1,-0.5305%
CC(C)NC(=O)c1cc(Br)c2c(c1)OCCO2,19.36%
O=C(c1ccoc1)N1CC[C@H]2[C@H]1CCN2S(=O)(=O)C1CC1,10.27%
CN(C)C(=O)CN1CCOCC2(CCN(c3ncc(F)cn3)CC2)C1,14.55%
CCn1cnnc1CN(C)Cc1c[nH]nc1-c1ccc(F)cc1,2.93%
Cn1cc(N2CCC3(CCCN(C(=O)c4ccnn4C)C3)C2=O)cn1 (centres unmarked),13.12%
O=C(c1ccc(F)c(F)c1)N1CCC(Cn2cc(CO)nn2)CC1,3.359%
CC(C)CNC(=O)c1ccc2nnc(C3CCN(S(C)(=O)=O)C3)n2c1 (centres unmarked),7.296%
OCCOCc1ncn2c1CN(Cc1cccs1)CCC2,7.937%
O=C(CCn1cccn1)N1CCN(CC(F)F)CC1,7.302%
Cc1nc(C)n(CC2CN(Cc3nc4ccccc4s3)CCO2)n1 (centres unmarked),11.97%
O=C(Nc1ccc2c(ccn2CCN2CCOCC2)c1)c1ccncc1,17.23%
CN(C)S(=O)(=O)N1CCN(CC2CCOc3ccccc3C2)CC1 (centres unmarked),6.989%
CC(C)c1nc2oc(C(=O)N3CCOCC3)c(N)c2c2c1CCCC2,10.03%
CC(C)Cn1ncc2cc(C(=O)N(C)Cc3cccc(O)c3)cnc21,10.31%
CCn1nc2c(cc1=O)CN(CC(=O)Nc1cc(C)no1)CC2,13.86%
Cc1cnc(C)c(N2C[C@H]3OC(=O)N(C4CCCC4)[C@H]3C2)n1,9.034%
COC(=O)c1cccn1C1CCN(C(=O)c2cn[nH]c2C)CC1,14.17%
Cc1cccnc1N1CCN(Cc2cc(O)c3cccc(F)c3n2)CC1,8.935%
Cc1ncc(CN2CCCC2c2ccc(C(=O)NCc3ccoc3)s2)s1 (centres unmarked),12.8%
COCCN1CCC(c2nc3ccc(N4CCCC4)cn3n2)CC1,12.03%
CC(C)COc1cccc(-c2nc3c([nH]2)CCNC3)c1,4.375%
Cn1cc(NS(=O)(=O)CC2CCCCO2)cn1 (centres unmarked),14.78%
FC(F)(F)CCN(Cc1ccon1)C1CCCC1,17.03%
CN1C(=O)CCCC12CCCN(C(=O)c1ccc3c(c1)OCO3)C2 (centres unmarked),12.5%
O=C(c1ccc2[nH]nnc2c1)N1CC[C@H](O)[C@]2(CCCO2)C1,15.56%
Cc1ccc(OCCn2cnc3oc(C)c(C(=O)O)c3c2=O)cc1,0.8403%
C[C@@H]1CN(C(=O)C2(Cn3cccn3)CC2)CC[C@@]1(O)C1CCOCC1,22.86%
Cn1cc(CN2CCOCC3(CCN(C4CCOCC4)C3)C2)cn1 (centres unmarked),-0.6536%
Cc1cc(-c2nccs2)nc(C2CCN(Cc3ccc(F)cc3)CC2)n1,19.37%
Cc1c(Cl)c(C(=O)NCc2ccc(F)cc2)nn1C,17.37%
Cc1ccc2[nH]c3c(c2c1)CN(C(=O)CN(C)CC1OCCO1)CC3,9.162%
c1cc(CN(CCCn2ccnc2)Cc2ccoc2)ccn1,12.66%
Cc1cc(-c2ccccc2C(=O)O)nc(C2CCCCN2C)n1 (centres unmarked),18.08%
Cc1oc(C)c(C(=O)NS(=O)(=O)c2ccc3c(c2)OCCO3)c1Br,16.94%
CC1(c2ncc(CN3CCN(c4ncccn4)CC3)cn2)CCCCO1 (centres unmarked),17.19%
CC(CC1CC1)NCCCN1CCCN(C)CC1 (centres unmarked),8.746%
CN(Cc1ccccc1OC(F)(F)F)C(=O)C1CC1,5.301%
COC(=O)CCN(CC1CCCO1)C(=O)Cc1ccc(OC)c(OC)c1 (centres unmarked),5.645%
Cc1ccc(CNC(=O)Cc2c(C)nc3c(c2C)c(=O)[nH]n3C)cc1,19.34%
O=C(CC1CCCC1)N1C[C@@H]2CN(Cc3ccoc3)CCO[C@@H]2C1,18.13%
Cn1ccnc1CCC1CCCCN1Cc1cnc(N2CCCC2)nc1 (centres unmarked),8.125%
CNC(=O)CC1CCN(Cc2nc(-c3cccc(Cl)c3)oc2C)CC1,17.75%
O=C(NCCNc1ncccn1)c1cnc(-c2ccccc2)nc1,10.68%
CCNC(=O)c1cn(C(C)(C)C)c2ncccc12,15.83%
CNc1cc(-c2ccccc2CN)c2cc[nH]c2n1,23.37%
Cc1cccc2c1cnn2CCC(=O)NCC(=O)N(C)C,10.37%
COc1cc(CNC(=O)COC2CCCC2)ccc1O,1.955%
CCNc1cc2c(nn1)CCN(C(=O)Cc1ccc(C)s1)C2,6.983%
CC(C)c1ccccc1NC(=O)N1C[C@@H]2CC[C@H](C1)N(C)C2=O,9.97%
Cn1ccnc1CN1CCCN(C(=O)c2ccc3c(c2)OCO3)CC1,11.45%
O=C(CCn1c(C(F)(F)F)cc2cccnc21)N1CCCC1,16.72%
N#CC1(NC(=O)c2nccc3ccccc23)CCSCC1,4.57%
CSCC[C@@H]1CN2CCC[C@H]2CN1Cc1coc2ccc(C)cc2c1=O,17.7%
CC(C)COc1ccc(C2SCC(=O)Nc3c2c(=O)[nH]n3C(C)C)cc1 (centres unmarked),8%
CC(C)N1Cc2cccc(NCC(=O)N(C)C)c2C1,15.62%
COC(=O)c1ccc2c(-c3ccnc(NCCO)n3)c[nH]c2c1,11.89%
F[C@@H]1CN(Cc2nccs2)C[C@@H]1OCc1nc2cnccc2[nH]1,4.511%